Source: paper PMC10333326
These are yes or no findings as the source states them, for the method shown. In cells and extracts the contact can be indirect. Some binding calls cover weakened binding; strength is not graded here.

The chains behind the UniProt entries cited, without tags or fusion partners. Where a name states a change or a piece, a line headed by the entry shows the natural chain unless it says otherwise.
UniProt O94916: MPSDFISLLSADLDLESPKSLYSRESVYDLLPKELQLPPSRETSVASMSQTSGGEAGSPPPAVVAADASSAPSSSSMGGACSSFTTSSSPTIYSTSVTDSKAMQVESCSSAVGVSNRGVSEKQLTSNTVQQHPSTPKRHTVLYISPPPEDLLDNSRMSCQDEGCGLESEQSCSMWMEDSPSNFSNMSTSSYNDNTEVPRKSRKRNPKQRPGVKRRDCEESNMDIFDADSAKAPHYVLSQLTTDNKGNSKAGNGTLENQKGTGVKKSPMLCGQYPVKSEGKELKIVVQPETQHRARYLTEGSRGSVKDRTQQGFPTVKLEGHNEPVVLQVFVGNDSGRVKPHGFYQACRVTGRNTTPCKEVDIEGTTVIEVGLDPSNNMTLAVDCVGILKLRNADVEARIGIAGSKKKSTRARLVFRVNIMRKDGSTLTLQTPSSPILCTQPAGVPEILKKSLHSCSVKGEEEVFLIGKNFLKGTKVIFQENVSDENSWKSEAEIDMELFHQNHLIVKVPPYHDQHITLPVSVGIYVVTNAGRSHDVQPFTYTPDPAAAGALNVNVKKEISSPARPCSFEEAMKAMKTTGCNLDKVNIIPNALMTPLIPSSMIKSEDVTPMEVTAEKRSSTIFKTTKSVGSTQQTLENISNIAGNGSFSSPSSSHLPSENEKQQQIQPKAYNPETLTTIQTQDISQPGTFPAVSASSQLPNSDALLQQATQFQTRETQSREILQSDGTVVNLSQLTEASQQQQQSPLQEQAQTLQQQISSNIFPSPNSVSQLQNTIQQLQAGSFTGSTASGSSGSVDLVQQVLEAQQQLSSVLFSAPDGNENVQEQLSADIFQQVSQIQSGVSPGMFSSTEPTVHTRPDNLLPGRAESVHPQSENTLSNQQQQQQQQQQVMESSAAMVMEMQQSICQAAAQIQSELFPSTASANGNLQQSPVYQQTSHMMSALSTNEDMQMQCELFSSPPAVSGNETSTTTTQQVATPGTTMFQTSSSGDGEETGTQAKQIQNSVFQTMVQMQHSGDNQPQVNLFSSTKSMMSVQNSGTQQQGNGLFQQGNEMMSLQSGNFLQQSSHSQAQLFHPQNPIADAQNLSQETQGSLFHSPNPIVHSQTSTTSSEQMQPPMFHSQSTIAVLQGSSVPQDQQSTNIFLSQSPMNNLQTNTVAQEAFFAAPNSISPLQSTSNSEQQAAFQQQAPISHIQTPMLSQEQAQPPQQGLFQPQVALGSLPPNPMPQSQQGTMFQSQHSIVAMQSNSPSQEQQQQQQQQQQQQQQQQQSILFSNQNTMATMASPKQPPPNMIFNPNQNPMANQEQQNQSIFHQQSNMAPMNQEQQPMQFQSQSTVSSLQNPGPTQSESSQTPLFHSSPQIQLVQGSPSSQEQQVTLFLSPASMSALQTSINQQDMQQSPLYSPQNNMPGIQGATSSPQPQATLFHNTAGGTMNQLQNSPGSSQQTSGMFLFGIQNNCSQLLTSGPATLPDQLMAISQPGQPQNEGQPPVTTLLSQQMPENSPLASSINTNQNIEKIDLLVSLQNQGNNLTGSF
UniProt Q92783: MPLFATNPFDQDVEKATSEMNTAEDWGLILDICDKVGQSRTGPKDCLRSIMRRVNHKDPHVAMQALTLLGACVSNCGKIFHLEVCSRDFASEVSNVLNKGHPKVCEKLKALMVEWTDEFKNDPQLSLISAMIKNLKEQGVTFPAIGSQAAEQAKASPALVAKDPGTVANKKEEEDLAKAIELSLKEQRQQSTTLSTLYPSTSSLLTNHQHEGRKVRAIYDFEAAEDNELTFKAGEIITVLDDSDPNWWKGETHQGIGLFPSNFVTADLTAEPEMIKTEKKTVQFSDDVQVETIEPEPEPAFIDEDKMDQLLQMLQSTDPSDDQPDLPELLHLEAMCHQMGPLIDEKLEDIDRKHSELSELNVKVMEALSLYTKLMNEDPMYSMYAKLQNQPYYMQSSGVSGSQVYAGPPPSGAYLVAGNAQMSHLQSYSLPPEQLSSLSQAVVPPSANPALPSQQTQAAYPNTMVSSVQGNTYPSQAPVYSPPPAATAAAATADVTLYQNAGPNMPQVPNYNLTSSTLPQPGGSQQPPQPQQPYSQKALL
UniProt Q14974: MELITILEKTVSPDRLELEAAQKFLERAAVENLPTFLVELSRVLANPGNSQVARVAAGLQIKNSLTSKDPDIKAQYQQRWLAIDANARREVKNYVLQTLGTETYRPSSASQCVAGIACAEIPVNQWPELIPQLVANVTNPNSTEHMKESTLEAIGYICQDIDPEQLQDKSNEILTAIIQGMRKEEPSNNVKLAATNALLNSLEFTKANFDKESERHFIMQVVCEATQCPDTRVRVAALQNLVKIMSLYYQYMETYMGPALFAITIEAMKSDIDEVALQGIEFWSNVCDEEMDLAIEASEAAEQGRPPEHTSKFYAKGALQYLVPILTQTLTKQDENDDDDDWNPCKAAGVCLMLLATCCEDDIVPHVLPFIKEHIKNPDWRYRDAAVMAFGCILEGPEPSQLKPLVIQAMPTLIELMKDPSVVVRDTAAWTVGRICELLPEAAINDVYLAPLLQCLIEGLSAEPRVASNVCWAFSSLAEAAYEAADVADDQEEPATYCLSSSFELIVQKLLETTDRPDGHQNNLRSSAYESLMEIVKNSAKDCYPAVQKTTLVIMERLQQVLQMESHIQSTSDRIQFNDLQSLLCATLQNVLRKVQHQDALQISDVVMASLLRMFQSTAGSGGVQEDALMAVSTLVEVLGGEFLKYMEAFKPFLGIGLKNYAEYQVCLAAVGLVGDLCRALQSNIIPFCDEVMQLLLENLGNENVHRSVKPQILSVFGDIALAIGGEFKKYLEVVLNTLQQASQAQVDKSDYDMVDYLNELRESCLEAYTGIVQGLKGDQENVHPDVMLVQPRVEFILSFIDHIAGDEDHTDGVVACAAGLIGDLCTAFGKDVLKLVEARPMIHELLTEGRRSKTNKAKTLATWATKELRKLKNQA

Experiments:
[1] = target: Tonicity-responsive enhancer binding protein (NFAT5), endogenous (human (endogenous in U87/EGFR, U251, U87/EGFRvIII)) (UniProt O94916); assay: co-IP; lysates of TRAF6-overexpressing cells (NFAT5 WT or K668R cells), with or without EGF, with or without EZH2 transfection
[2] = target: Flag-tagged NFAT5 wild-type (human) (UniProt O94916); assay: co-IP; lysates of U87/EGFR or U251 cells stably expressing NFAT5 WT, K668R or K616R, with or without EGF (also an EGF time course after serum starvation); primary antibody overnight at 4 °C, Protein A/G Sepharose beads
[3] = target: Flag-tagged NFAT5 K668R mutant (human) (UniProt O94916); assay: as above
[4] = target: Tonicity-responsive enhancer binding protein (NFAT5), endogenous (human (endogenous in U87/EGFR, U251, U87/EGFRvIII)) (UniProt O94916); assay: co-IP; endogenous proteins in U87/EGFR and U251 cell lysates; primary antibody overnight at 4 °C, Protein A/G Sepharose beads 2 h, immunoblot; also cells with shEZH2 or DZNep
[5] = target: Flag-tagged NFAT5 wild-type (human) (UniProt O94916); assay: co-IP; lysates of TRAF6-overexpressing cells (NFAT5 WT or K668R cells), with or without EGF, with or without EZH2 transfection
[6] = target: Tonicity-responsive enhancer binding protein (NFAT5), endogenous (human (endogenous in U87/EGFR, U251, U87/EGFRvIII)) (UniProt O94916); assay: co-IP; lysates of cells expressing EZH2 WT or S21A, with or without EGF; primary antibody overnight at 4 °C, Protein A/G Sepharose beads
[7] = target: Tonicity-responsive enhancer binding protein (NFAT5), endogenous (human (endogenous in U87/EGFR, U251, U87/EGFRvIII)) (UniProt O94916); assay: co-IP; tumours from U87/EGFRvIII orthotopic xenografts of mice treated with TMZ, DZNep, alone or in combination; the method is not named for this panel

Measured: binding

STAM1, endogenous (from UniProt Q92783 1-540)
binds: [1] | [2] | [3]

importin β1 (IMB1), endogenous (from UniProt Q14974 1-876)
not listed: [1] | [3]
binds: all other assays above
